Two molecules from patent US20230399403A1 (BIONTECH, published 2023) can be followed below.

By UniProt entry, the sequences of proteins in these tests, tags left out. Where a name states a change or a piece, a line headed by the entry shows the natural chain unless it says otherwise.
UniProt Q15116: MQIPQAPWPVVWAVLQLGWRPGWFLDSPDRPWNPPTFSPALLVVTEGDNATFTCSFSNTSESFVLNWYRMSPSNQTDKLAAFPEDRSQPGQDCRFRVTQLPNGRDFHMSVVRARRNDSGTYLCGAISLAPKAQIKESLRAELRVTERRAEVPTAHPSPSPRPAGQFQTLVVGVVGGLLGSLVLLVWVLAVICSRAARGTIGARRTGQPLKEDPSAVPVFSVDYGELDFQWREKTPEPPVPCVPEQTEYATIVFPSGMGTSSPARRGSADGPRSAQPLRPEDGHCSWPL

No constants are given. Whether binding was seen depends on the method and setting. Some binding calls cover weakened binding; strength is not graded here.

The assay deals with full-length human PD-1 expressed on cells (human) (UniProt Q15116). The assay can be described thus: flow cytometry, K562 cells expressing full-length human PD-1. A general note: Flow cytometry measures light scatter and fluorescence of single cells or particles in a stream.

B1: MAB-19-0202 (antibody, V domains shown)
VH: QSVEESGGRLVTPGTPLTLTCTVSGFSLYSYNMGWVRQAPGKGLEYIGIISGGTIGHYASWAKGRFTISKTSSTTVDLKMTSLTTEDTATYFCARAFYDDYDYNVWGPGTLVTVSS
VL: AAVLTQTPSPVSAAVGGTVTISCQSSQSVYGNNQLSWYQQKPGQPPKLLIYQASKLETGVPSRFKGSGSGTQFTLTISDLESDDAATYYCAGGYSSSSDTTFGGGTEVVVK
notes: Chimeric rabbit/human antibody: rabbit variable regions cloned N-terminal of human IgG1 / kappa constant parts with L234A and L235A (LALA)
For the molecule B1, the binding result is reported as “binds”.

B2: RiboMab-19-0233 (antibody, V domains shown)
VH: QSLEESGGDLVKPGASLTLTCKASGIDFSSVYYMCWVRQAPGKGLEWIACIYVGSSGVSYYATWAKGRFTISKTSSTTVTLQMTSLTAADTATYFCARAGYVGAVYVTLTRLDLWGQGTLVTVSS
VL: AAVLTQTPSPVSAAVGGTVTISCQSSQSIYTNNDLAWYQQKPGQPPKLLIYDASKLASGVPSRFSGSGSGTQFTLTISGVQSDDAATYYCLGGYDDDADNAFGGGTEVVVK
notes: Tested as HEK293T/17 supernatant, concentration not determined
As for B2, the binding result is “binds”.
